{
  "source": "paper PMC11284787",
  "about": "“Ligand-Directed Labeling of the Adenosine A1 Receptor in Living Cells” (Journal of Medicinal Chemistry, 2024)",
  "system": "T1, SNAP-hA1AR",
  "T1 construct": "expressed in transfected cells; host or cells: HEK293T, transient transfection (FuGENE HD)",
  "test": "Fluorescence correlation spectroscopy on SNAP-hA1AR HEK293T cell membranes",
  "format": "cell-based, human",
  "conditions": "100 nM 90 min",
  "data": [
    {"smiles": "CCCCn1c(=O)c2[nH]c(C34CCC(C(=O)NCCNC(=O)CCNC(=O)c5ccc(OC(=O)CCCCC[N+]6=C(/C=C/C=C/C=C7/N(C)c8ccc(S(=O)(=O)O)cc8C7(C)C)C(C)(C)c7cc(S(=O)(=O)[O-])ccc76)c(F)c5)(CC3)CC4)nc2n(CCCC)c1=O", "note": "[Compound 11, 1-(6-(4-((3-((2-(4-(1,3-Dibutyl-2,6-dioxo-2,3,6,7-tetrahydro-1H-purin-8-yl)bicyclo[2.2.2]octane-1-carboxamido)ethyl)amino)-3-oxopropyl)carbamoyl)-2-fluorophenoxy)-6-oxohexyl)-3,3-dimethyl-2-((1E,3E)-5-((E)-1,3,3-trimethyl-5-sulfoindolin-2-ylidene)penta-1,3-dien-1-yl)-3H-indol-1-ium-5-sulfonate]", "values": [
      {"measurement": "expression level detected in labeled cells, range", "result": "4–45 particles per μm^2"},
      {"measurement": "average expression level detected in labeled cells", "setting": "mean ± SEM", "result": "17.9 ± 1.62", "unit": "particles per μm^2"}
    ]}
  ]
}
